From publication doi:10.1101/2024.01.24.576984

Chains of the proteins cited; added tags and fusions are not shown. Lines headed by an entry give the natural chain unless they say otherwise; changes in a name come on top. Residues count along the entry.
UniProt Q9NVM9, residues 1-648: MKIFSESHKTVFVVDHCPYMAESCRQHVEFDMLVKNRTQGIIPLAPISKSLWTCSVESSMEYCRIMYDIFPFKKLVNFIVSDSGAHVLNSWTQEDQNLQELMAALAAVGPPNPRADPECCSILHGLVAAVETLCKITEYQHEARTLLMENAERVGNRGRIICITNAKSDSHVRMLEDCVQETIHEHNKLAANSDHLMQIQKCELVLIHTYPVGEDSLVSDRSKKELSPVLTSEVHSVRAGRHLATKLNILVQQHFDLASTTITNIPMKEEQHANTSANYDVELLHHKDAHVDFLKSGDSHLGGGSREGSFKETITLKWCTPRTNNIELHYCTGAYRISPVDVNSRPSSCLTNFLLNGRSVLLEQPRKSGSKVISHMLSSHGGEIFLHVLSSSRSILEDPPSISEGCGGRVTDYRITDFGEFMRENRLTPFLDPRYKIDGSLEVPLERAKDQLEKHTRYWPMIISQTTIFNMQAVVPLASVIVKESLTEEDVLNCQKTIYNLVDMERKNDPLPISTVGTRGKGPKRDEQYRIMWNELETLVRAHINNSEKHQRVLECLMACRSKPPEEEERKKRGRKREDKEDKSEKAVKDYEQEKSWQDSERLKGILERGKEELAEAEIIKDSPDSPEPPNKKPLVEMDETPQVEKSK
UniProt Q9NVR2: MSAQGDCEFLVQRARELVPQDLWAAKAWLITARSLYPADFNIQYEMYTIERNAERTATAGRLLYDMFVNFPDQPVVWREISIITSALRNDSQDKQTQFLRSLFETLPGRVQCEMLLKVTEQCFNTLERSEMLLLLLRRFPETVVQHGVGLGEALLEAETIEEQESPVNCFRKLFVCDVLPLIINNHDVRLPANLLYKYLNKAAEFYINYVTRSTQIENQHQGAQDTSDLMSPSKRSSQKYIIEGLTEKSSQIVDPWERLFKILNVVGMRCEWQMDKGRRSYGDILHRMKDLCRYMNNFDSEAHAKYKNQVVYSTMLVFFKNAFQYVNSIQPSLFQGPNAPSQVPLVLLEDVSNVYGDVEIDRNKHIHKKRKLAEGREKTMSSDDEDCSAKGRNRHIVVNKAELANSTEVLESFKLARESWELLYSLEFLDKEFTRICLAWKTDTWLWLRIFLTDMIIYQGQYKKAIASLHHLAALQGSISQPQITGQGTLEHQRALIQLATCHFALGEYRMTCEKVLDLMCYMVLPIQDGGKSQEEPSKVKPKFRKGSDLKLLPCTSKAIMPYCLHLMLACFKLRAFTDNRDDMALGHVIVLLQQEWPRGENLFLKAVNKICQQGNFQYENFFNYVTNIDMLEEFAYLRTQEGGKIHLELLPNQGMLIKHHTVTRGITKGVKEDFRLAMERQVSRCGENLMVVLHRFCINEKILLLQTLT

B1: ZEB2 (protein, UniProt O60315 1-1214)
chain: MKQPIMADGPRCKRRKQANPRRKNVVNYDNVVDTGSETDEEDKLHIAEDDGIANPLDQETSPASVPNHESSPHVSQALLPREEEEDEIREGGVEHPWHNNEILQASVDGPEEMKEDYDTMGPEATIQTAINNGTVKNANCTSDFEEYFAKRKLEERDGHAVSIEEYLQRSDTAIIYPEAPEELSRLGTPEANGQEENDLPPGTPDAFAQLLTCPYCDRGYKRLTSLKEHIKYRHEKNEENFSCPLCSYTFAYRTQLERHMVTHKPGTDQHQMLTQGAGNRKFKCTECGKAFKYKHHLKEHLRIHSGEKPYECPNCKKRFSHSGSYSSHISSKKCIGLISVNGRMRNNIKTGSSPNSVSSSPTNSAITQLRNKLENGKPLSMSEQTGLLKIKTEPLDFNDYKVLMATHGFSGTSPFMNGGLGATSPLGVHPSAQSPMQHLGVGMEAPLLGFPTMNSNLSEVQKVLQIVDNTVSRQKMDCKAEEISKLKGYHMKDPCSQPEEQGVTSPNIPPVGLPVVSHNGATKSIIDYTLEKVNEAKACLQSLTTDSRRQISNIKKEKLRTLIDLVTDDKMIENHNISTPFSCQFCKESFPGPIPLHQHERYLCKMNEEIKAVLQPHENIVPNKAGVFVDNKALLLSSVLSEKGMTSPINPYKDHMSVLKAYYAMNMEPNSDELLKISIAVGLPQEFVKEWFEQRKVYQYSNSRSPSLERSSKPLAPNSNPPTKDSLLPRSPVKPMDSITSPSIAELHNSVTNCDPPLRLTKPSHFTNIKPVEKLDHSRSNTPSPLNLSSTSSKNSHSSSYTPNSFSSEELQAEPLDLSLPKQMKEPKSIIATKNKTKASSISLDHNSVSSSSENSDEPLNLTFIKKEFSNSNNLDNKSTNPVFSMNPFSAKPLYTALPPQSAFPPATFMPPVQTSIPGLRPYPGLDQMSFLPHMAYTYPTGAATFADMQQRRKYQRKQGFQGELLDGAQDYMSGLDDMTDSDSCLSRKKIKKTESGMYACDLCDKTFQKSSSLLRHKYEHTGKRPHQCQICKKAFKHKHHLIEHSRLHSGEKPYQCDKCGKRFSHSGSYSQHMNHRYSYCKREAEEREAAEREAREKGHLEPTELLMNRAYLQSITPQGYSDSEERESMPRDGESEKEHEKEGEDGYGKLGRQDGDEEFEEEEEESENKSMDTDPETIRDEEETGDHSMDDSSEDGKMETKSDHEEDNMEDGM
B2: TSPYL1 (protein, UniProt Q9H0U9 1-437)
chain: MSGLDGVKRTTPLQTHSIIISDQVPSDQDAHQYLRLRDQSEATQVMAEPGEGGSETVALPPPPPSEEGGVPQDAAGRGGTPQIRVVGGRGHVAIKAGQEEGQPPAEGLAAASVVMAADRSLKKGVQGGEKALEICGAQRSASELTAGAEAEAEEVKTGKCATVSAAVAERESAEVVKEGLAEKEVMEEQMEVEEQPPEGEEIEVAEEDRLEEEAREEEGPWPLHEALRMDPLEAIQLELDTVNAQADRAFQQLEHKFGRMRRHYLERRNYIIQNIPGFWMTAFRNHPQLSAMIRGQDAEMLRYITNLEVKELRHPRTGCKFKFFFRRNPYFRNKLIVKEYEVRSSGRVVSLSTPIIWRRGHEPQSFIRRNQDLICSFFTWFSDHSLPESDKIAEIIKEDLWPNPLQYYLLREGVRRARRRPLREPVEIPRPFGFQSG
B3: ZNF609 (protein, UniProt O15014 1-1411)
chain: MSLSSGASGGKGVDANPVETYDSGDEWDIGVGNLIIDLDADLEKDQQKLEMSGSKEVGIPAPNAVATLPDNIKFVTPVPGPQGKEGKSKSKRSKSGKDTSKPTPGTSLFTPSEGAASKKEVQGRSGDGANAGGLVAAIAPKGSEKAAKASRSVAGSKKEKENSSSKSKKERSEGVGTCSEKDPGVLQPVPLGGRGGQYDGSAGVDTGAVEPLGSIAIEPGAALNPLGTKPEPEEGENECRLLKKVKSEKMESPVSTPAVLPIHLLVPVVNNDISSPCEQIMVRTRSVGVNTCDVALATEPECLGPCEPGTSVNLEGIVWQETEDGMLVVNVTWRNKTYVGTLLDCTRHDWAPPRFCDSPTSDLEMRNGRGRGKRMRPNSNTPVNETATASDSKGTSNSSKTRAGANSKGRRGSQNSSEHRPPASSTSEDVKASPSSANKRKNKPLSDMELNSSSEDSKGSKRVRTNSMGSATGPLPGTKVEPTVLDRNCPSPVLIDCPHPNCNKKYKHINGLKYHQAHAHTDDDSKPEADGDSEYGEEPILHADLGSCNGASVSQKGSLSPARSATPKVRLVEPHSPSPSSKFSTKGLCKKKLSGEGDTDLGALSNDGSDDGPSVMDETSNDAFDSLERKCMEKEKCKKPSSLKPEKIPSKSLKSARPIAPAIPPQQIYTFQTATFTAASPGSSSGLTATVAQAMPNSPQLKPIQPKPTVMGEPFTVNPALTPAKDKKKKDKKKKESSKELESPLTPGKVCRAEEGKSPFRESSGDGMKMEGLLNGSSDPHQSRLASIKAEADKIYSFTDNAPSPSIGGSSRLENTTPTQPLTPLHVVTQNGAEASSVKTNSPAYSDISDAGEDGEGKVDSVKSKDAEQLVKEGAKKTLFPPQPQSKDSPYYQGFESYYSPSYAQSSPGALNPSSQAGVESQALKTKRDEEPESIEGKVKNDICEEKKPELSSSSQQPSVIQQRPNMYMQSLYYNQYAYVPPYGYSDQSYHTHLLSTNTAYRQQYEEQQKRQSLEQQQRGVDKKAEMGLKEREAALKEEWKQKPSIPPTLTKAPSLTDLVKSGPGKAKEPGADPAKSVIIPKLDDSSKLPGQAPEGLKVKLSDASHLSKEASEAKTGAECGRQAEMDPILWYRQEAEPRMWTYVYPAKYSDIKSEDERWKEERDRKLKEERSRSKDSVPKEDGKESTSSDCKLPTSEESRLGSKEPRPSVHVPVSSPLTQHQSYIPYMHGYSYSQSYDPNHPSYRSMPAVMMQNYPGSYLPSSYSFSPYGSKVSGGEDADKARASPSVTCKSSSESKALDILQQHASHYKSKSPTISDKTSQERDRGGCGVVGGGGSCSSVGGASGGERSVDRPRTSPSQRLMSTHHHHHHLGYSLLPAQYNLPYAAGLSSTAIVASQQGSTPSLYPPPRR
B4: ZNF655 (protein, UniProt Q8N720 1-491)
chain: MEEIPAQEAAGSPRVQFQSLETQSECLSPEPQFVQDTDMEQGLTGDGETREENKLLIPKQKISEEVHSYKVRVGRLKHDITQVPETREVYKSEDRLERLQEILRKFLYLEREFRQITISKETFTSEKNNECHEPEKSFSLDSTIDADQRVLRIQNTDDNDKYDMSFNQNSASGKHEHLNLTEDFQSSECKESLMDLSHLNKWESIPNTEKSYKCDVCGKIFHQSSALTRHQRIHTREKPYKCKECEKSFSQSSSLSRHKRIHTREKPYKCEASDKSCEASDKSCSPSSGIIQHKKIHTRAKSYKCSSCERVFSRSVHLTQHQKIHKEMPCKCTVCGSDFCHTSYLLEHQRVHHEEKAYEYDEYGLAYIKQQGIHFREKPYTCSECGKDFRLNSHLIQHQRIHTGEKAHECNECGKAFSQTSCLIQHHKMHRKEKSYECNEYEGSFSHSSDLILQQEVLTRQKAFDCDVWEKNSSQRAHLVQHQSIHTKENS
B5: ZNF687 (protein, UniProt Q8N1G0 1-1237)
chain: MGDMKTPDFDDLLAAFDIPDIDANEAIHSGPEENEGPGGPGKPEPGVGSESEDTAAASAGDGPGVPAQASDHGLPPPDISVVSVIVKNTVCPEQSEALAGGSAGDGAQAAGVTKEGPVGPHRMQNGFGSPEPSLPGTPHSPAPPSGGTWKEKGMEGKTPLDLFAHFGPEPGDHSDPLPPSAPSPTREGALTPPPFPSSFELAQENGPGMQPPVSSPPLGALKQESCSPHHPQVLAQQGSGSSPKATDIPASASPPPVAGVPFFKQSPGHQSPLASPKVPVCQPLKEEDDDEGPVDKSSPGSPQSPSSGAEAADEDSNDSPASSSSRPLKVRIKTIKTSCGNITRTVTQVPSDPDPPAPLAEGAFLAEASLLKLSPATPTSEGPKVVSVQLGDGTRLKGTVLPVATIQNASTAMLMAASVARKAVVLPGGTATSPKMIAKNVLGLVPQALPKADGRAGLGTGGQKVNGASVVMVQPSKTATGPSTGGGTVISRTQSSLVEAFNKILNSKNLLPAYRPNLSPPAEAGLALPPTGYRCLECGDAFSLEKSLARHYDRRSMRIEVTCNHCARRLVFFNKCSLLLHAREHKDKGLVMQCSHLVMRPVALDQMVGQPDITPLLPVAVPPVSGPLALPALGKGEGAITSSAITTVAAEAPVLPLSTEPPAAPATSAYTCFRCLECKEQCRDKAGMAAHFQQLGPPAPGATSNVCPTCPMMLPNRCSFSAHQRMHKNRPPHVCPECGGNFLQANFQTHLREACLHVSRRVGYRCPSCSVVFGGVNSIKSHIQTSHCEVFHKCPICPMAFKSGPSAHAHLYSQHPSFQTQQAKLIYKCAMCDTVFTHKPLLSSHFDQHLLPQRVSVFKCPSCPLLFAQKRTMLEHLKNTHQSGRLEETAGKGAGGALLTPKTEPEELAVSQGGAAPATEESSSSSEEEEVPSSPEPPRPAKRPRRELGSKGLKGGGGGPGGWTCGLCHSWFPERDEYVAHMKKEHGKSVKKFPCRLCERSFCSAPSLRRHVRVNHEGIKRVYPCRYCTEGKRTFSSRLILEKHVQVRHGLQLGAQSPGRGTTLARGSSARAQGPGRKRRQSSDSCSEEPDSTTPPAKSPRGGPGSGGHGPLRYRSSSSTEQSLMMGLRVEDGAQQCLDCGLCFASPGSLSRHRFISHKKRRGVGKASALGLGDGEEEAPPSRSDPDGGDSPLPASGGPLTCKVCGKSCDSPLNLKTHFRTHGMAFIRARQGAVGDN
B6: ZEB1 (protein, UniProt P37275 1-1124)
chain: MADGPRCKRRKQANPRRNNVTNYNTVVETNSDSDDEDKLHIVEEESVTDAADCEGVPEDDLPTDQTVLPGRSSEREGNAKNCWEDDRKEGQEILGPEAQADEAGCTVKDDECESDAENEQNHDPNVEEFLQQQDTAVIFPEAPEEDQRQGTPEASGHDENGTPDAFSQLLTCPYCDRGYKRFTSLKEHIKYRHEKNEDNFSCSLCSYTFAYRTQLERHMTSHKSGRDQRHVTQSGCNRKFKCTECGKAFKYKHHLKEHLRIHSGEKPYECPNCKKRFSHSGSYSSHISSKKCISLIPVNGRPRTGLKTSQCSSPSLSASPGSPTRPQIRQKIENKPLQEQLSVNQIKTEPVDYEFKPIVVASGINCSTPLQNGVFTGGGPLQATSSPQGMVQAVVLPTVGLVSPISINLSDIQNVLKVAVDGNVIRQVLENNQANLASKEQETINASPIQQGGHSVISAISLPLVDQDGTTKIIINYSLEQPSQLQVVPQNLKKENPVATNSCKSEKLPEDLTVKSEKDKSFEGGVNDSTCLLCDDCPGDINALPELKHYDLKQPTQPPPLPAAEAEKPESSVSSATGDGNLSPSQPPLKNLLSLLKAYYALNAQPSAEELSKIADSVNLPLDVVKKWFEKMQAGQISVQSSEPSSPEPGKVNIPAKNNDQPQSANANEPQDSTVNLQSPLKMTNSPVLPVGSTTNGSRSSTPSPSPLNLSSSRNTQGYLYTAEGAQEEPQVEPLDLSLPKQQGELLERSTITSVYQNSVYSVQEEPLNLSCAKKEPQKDSCVTDSEPVVNVIPPSANPINIAIPTVTAQLPTIVAIADQNSVPCLRALAANKQTILIPQVAYTYSTTVSPAVQEPPLKVIQPNGNQDERQDTSSEGVSNVEDQNDSDSTPPKKKMRKTENGMYACDLCDKIFQKSSSLLRHKYEHTGKRPHECGICKKAFKHKHHLIEHMRLHSGEKPYQCDKCGKRFSHSGSYSQHMNHRYSYCKREAEERDSTEQEEAGPEILSNEHVGARASPSQGDSDERESLTREEDEDSEKEEEEEDKEMEELQEEKECEKPQGDEEEEEEEEEVEEEEVEEAENEGEEAKTEGLMKDDRAESQASSLGQKVGESSEQVSEEKTNEA

Tests used:
2SC-INTS13ΔC (human) = 2SC-INTS13ΔC (human) (UniProt Q9NVM9); test: affinity purification with mass spectrometry
INTS10-C2S (human) = INTS10-C2S (human) (UniProt Q9NVR2); test: affinity purification with mass spectrometry

Binder | binding (2SC-INTS13ΔC (human)) | binding (INTS10-C2S (human))
B1 | binds | 
B2 | binds | 
B3 | binds | binds
B4 | binds | binds
B5 |  | binds
B6 | binds | 

No constants are given. Whether binding was seen depends on the method and setting. Binding seen in cells or lysates may run through a third protein. Here binding means that the protein was enriched with, or labelled near, the bait; the list need not be complete.
